Measurements: publication PMC10743781
These are yes or no findings as the source states them, for the method shown. Binding seen in cells or lysates may run through a third protein. Some results given as binding are weak or reduced against the parent protein; the word gives no strength. Sequences can lack the tags named with a protein.

Sequences of proteins named here, by UniProt entry; tags and fusion partners are left off.
UniProt P31750: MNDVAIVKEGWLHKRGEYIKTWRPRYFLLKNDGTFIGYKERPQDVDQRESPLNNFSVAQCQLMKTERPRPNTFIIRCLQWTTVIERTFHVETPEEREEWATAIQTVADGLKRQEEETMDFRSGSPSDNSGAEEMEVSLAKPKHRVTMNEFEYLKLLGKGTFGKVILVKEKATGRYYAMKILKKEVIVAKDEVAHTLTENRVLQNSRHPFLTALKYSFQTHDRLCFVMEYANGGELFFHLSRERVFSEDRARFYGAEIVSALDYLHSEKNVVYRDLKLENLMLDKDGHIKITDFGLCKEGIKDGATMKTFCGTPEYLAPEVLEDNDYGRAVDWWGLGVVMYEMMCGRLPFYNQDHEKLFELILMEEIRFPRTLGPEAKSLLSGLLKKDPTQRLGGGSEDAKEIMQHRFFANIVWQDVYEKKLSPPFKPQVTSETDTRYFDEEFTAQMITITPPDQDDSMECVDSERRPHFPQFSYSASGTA

Legend:
[1] = target: HA-Akt (wild type), in HeLa (UniProt P31750); test: co-IP; HeLa transfected with HA-Akt and Myc-BAG5, serum-starved overnight, then vehicle or 10 ng/mL HGF for 15 min; anti-HA immunoprecipitation, anti-Myc blot
[2] = target: HA-Akt (full-length Akt1 tagged with HA), in HEK293T (UniProt P31750); test: co-IP; HEK293T cotransfected with HA-Akt and Myc-BAG5; TNTE lysis buffer (50 mM Tris pH 7.5, 150 mM NaCl, 1% Triton X-100, 5 mM EDTA); anti-HA immunoprecipitation, anti-Myc blot

Row | Binder | binding [1] | binding [2]
1 | Myc-BAG5, in HeLa (protein, UniProt Q9UL15 1-447) MDMGNQHPSISRLQEIQKEVKSVEQQVIGFSGLSDDKNYKKLERILTKQLFEIDSVDTEGKGDIQQARKRAAQETERLLKELEQNANHPHRIEIQNIFEEAQSLVREKIVPFYNGGNCVTDEFEEGIQDIILRLTHVKTGGKISLRKARYHTLTKICAVQEIIEDCMKKQPSLPLSEDAHPSVAKINFVMCEVNKARGVLIALLMGVNNNETCRHLSCVLSGLIADLDALDVCGRTEIRNYRREVVEDINKLLKYLDLEEEADTTKAFDLRQNHSILKIEKVLKRMREIKNELLQAQNPSELYLSSKTELQGLIGQLDEVSLEKNPCIREARRRAVIEVQTLITYIDLKEALEKRKLFACEEHPSHKAVWNVLGNLSEIQGEVLSFDGNRTDKNYIRLEELLTKQLLALDAVDPQGEEKCKAARKQAVRLAQNILSYLDLKSDEWEY | binds | –
2 | Myc-BAG5 (full-length BAG5 tagged with Myc), in HEK293T (protein, UniProt Q9UL15 1-447) MDMGNQHPSISRLQEIQKEVKSVEQQVIGFSGLSDDKNYKKLERILTKQLFEIDSVDTEGKGDIQQARKRAAQETERLLKELEQNANHPHRIEIQNIFEEAQSLVREKIVPFYNGGNCVTDEFEEGIQDIILRLTHVKTGGKISLRKARYHTLTKICAVQEIIEDCMKKQPSLPLSEDAHPSVAKINFVMCEVNKARGVLIALLMGVNNNETCRHLSCVLSGLIADLDALDVCGRTEIRNYRREVVEDINKLLKYLDLEEEADTTKAFDLRQNHSILKIEKVLKRMREIKNELLQAQNPSELYLSSKTELQGLIGQLDEVSLEKNPCIREARRRAVIEVQTLITYIDLKEALEKRKLFACEEHPSHKAVWNVLGNLSEIQGEVLSFDGNRTDKNYIRLEELLTKQLLALDAVDPQGEEKCKAARKQAVRLAQNILSYLDLKSDEWEY | – | binds
